Data published in the supplement of paper PMC6411743.
± gives the standard deviation of the averaged measurements. This is a selection; strong and weak results do not stand in their true shares.

Tests used:
Test in all cases: NP40-soluble protein abundance relative to vehicle (solubility fold change) (ratio); higher = more soluble protein in presence of AMP-PNP
[1] = target: T1, G3V5P0 and related entries (UniProt Q86UP2)
T1 sequence (whole entry): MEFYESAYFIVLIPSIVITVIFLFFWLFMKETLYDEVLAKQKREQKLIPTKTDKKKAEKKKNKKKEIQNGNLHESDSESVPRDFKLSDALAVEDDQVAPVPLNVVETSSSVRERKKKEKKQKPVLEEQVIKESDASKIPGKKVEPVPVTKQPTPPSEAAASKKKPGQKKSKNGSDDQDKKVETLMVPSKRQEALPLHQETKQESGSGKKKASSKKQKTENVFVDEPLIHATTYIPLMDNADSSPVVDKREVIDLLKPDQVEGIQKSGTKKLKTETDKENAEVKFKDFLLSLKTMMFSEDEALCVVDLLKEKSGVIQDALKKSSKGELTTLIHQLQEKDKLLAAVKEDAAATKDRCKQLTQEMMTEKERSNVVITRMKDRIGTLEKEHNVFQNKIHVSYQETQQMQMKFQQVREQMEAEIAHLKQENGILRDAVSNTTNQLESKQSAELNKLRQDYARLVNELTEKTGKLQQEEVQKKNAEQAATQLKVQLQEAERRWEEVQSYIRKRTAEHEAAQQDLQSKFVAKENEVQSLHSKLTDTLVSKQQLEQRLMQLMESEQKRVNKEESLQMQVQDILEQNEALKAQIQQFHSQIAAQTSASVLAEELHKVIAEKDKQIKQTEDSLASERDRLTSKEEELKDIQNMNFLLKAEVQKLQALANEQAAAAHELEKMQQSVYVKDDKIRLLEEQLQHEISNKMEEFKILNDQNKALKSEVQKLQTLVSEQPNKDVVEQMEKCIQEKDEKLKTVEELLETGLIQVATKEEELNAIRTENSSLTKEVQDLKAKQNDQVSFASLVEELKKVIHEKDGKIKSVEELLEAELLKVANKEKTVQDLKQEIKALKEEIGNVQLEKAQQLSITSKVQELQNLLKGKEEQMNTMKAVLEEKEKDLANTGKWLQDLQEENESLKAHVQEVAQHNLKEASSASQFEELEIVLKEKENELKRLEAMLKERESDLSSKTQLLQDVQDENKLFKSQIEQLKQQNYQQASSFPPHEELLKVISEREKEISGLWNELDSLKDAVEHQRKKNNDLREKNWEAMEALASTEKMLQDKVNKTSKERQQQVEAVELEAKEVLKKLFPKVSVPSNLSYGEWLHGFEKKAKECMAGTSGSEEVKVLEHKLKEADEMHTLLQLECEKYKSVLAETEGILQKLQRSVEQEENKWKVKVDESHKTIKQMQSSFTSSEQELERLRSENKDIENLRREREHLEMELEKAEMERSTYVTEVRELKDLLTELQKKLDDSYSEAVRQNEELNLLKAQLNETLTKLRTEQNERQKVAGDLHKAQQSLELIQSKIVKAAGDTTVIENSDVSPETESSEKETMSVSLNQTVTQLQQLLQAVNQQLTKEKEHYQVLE
Summary of the method: (§1)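 Data come from three independent experiments in which Dounce-homogenised Jurkat crude lysate was treated at eight concentrations from 0.1 to 10 mM. Treatment ran 10 min at room temperature and then 3 min at 37 °C, after which 0.8% NP40 and benzonase were added for 60 min at 4 °C before ultracentrifugation. The supernatant underwent TMT labelling and LC-MS/MS, and vsn-normalised intensities were expressed as fold change against the detergent-processed vehicle in each replicate.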

[2] = target: T2, G3V5T0 and related entries (UniProt O43708)
T2 sequence (whole entry): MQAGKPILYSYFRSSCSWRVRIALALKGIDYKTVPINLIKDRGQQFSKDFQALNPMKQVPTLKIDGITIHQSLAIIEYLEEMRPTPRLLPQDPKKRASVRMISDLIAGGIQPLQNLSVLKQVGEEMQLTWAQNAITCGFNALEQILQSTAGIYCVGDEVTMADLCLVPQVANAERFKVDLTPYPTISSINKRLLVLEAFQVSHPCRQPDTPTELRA
Summary of the method: as §1

[3] = target: T3, G5E9V4 and related entries (UniProt Q969F9)
T3 sequence (whole entry): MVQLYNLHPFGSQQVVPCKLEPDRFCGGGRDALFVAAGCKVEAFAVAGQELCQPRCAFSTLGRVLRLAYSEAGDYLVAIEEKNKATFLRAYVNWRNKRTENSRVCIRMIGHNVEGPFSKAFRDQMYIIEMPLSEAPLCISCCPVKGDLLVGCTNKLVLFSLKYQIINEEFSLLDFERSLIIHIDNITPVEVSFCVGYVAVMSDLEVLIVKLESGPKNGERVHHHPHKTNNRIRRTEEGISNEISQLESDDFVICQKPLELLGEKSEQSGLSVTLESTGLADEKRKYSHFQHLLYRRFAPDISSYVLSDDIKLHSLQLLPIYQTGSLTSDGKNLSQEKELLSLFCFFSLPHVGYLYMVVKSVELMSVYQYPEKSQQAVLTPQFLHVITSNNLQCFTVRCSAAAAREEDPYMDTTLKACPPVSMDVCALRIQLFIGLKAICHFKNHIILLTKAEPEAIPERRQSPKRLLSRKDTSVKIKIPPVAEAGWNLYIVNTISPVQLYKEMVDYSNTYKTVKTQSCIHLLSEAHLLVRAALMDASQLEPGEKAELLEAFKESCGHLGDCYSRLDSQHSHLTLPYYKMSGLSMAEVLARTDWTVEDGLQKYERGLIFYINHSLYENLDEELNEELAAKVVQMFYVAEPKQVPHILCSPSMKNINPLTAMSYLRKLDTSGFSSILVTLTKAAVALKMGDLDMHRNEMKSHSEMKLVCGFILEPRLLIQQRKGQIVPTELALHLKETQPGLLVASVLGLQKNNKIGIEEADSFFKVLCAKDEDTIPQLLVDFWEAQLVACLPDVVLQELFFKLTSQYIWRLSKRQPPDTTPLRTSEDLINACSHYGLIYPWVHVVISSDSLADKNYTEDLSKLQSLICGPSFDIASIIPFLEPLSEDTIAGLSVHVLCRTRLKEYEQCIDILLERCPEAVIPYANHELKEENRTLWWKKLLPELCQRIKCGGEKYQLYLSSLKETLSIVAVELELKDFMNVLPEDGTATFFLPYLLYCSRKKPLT
Summary of the method: as §1

[4] = target: T4, H0Y9I3 and related entries (UniProt Q9HAV4)
T4 sequence (whole entry): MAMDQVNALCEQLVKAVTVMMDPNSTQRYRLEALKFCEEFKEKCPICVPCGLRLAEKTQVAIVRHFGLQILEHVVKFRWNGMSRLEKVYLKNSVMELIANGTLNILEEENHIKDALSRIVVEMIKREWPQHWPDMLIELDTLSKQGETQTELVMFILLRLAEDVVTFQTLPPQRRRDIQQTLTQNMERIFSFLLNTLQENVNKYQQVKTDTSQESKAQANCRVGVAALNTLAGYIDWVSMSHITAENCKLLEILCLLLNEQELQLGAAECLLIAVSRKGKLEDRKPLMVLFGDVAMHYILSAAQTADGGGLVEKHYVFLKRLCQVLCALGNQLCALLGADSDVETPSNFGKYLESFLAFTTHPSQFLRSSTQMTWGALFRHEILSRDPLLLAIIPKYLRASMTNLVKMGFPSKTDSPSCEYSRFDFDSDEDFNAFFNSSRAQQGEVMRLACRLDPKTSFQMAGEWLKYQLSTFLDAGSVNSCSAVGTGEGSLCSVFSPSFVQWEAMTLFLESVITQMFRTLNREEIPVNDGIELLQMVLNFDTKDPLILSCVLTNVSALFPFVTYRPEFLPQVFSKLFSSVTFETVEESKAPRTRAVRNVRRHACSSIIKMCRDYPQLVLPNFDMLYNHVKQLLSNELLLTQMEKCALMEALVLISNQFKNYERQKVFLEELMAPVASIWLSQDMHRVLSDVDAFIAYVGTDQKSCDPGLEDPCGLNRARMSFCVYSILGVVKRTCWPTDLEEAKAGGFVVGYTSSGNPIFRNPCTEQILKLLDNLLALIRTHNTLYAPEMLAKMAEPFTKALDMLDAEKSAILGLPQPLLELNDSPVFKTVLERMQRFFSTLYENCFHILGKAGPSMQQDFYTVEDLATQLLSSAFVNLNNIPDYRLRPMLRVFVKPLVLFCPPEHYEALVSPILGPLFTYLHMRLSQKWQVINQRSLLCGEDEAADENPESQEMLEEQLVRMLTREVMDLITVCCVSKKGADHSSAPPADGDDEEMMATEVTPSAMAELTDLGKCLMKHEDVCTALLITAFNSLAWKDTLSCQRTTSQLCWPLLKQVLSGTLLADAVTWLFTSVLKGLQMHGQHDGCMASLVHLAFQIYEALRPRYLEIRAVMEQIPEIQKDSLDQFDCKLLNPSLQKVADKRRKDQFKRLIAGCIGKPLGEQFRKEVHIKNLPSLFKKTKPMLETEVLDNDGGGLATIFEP
Summary of the method: as §1

[5] = target: T5, H0YBI6 and related entries (UniProt Q86VQ6); conditions: concentration: 1mM
T5 sequence (whole entry): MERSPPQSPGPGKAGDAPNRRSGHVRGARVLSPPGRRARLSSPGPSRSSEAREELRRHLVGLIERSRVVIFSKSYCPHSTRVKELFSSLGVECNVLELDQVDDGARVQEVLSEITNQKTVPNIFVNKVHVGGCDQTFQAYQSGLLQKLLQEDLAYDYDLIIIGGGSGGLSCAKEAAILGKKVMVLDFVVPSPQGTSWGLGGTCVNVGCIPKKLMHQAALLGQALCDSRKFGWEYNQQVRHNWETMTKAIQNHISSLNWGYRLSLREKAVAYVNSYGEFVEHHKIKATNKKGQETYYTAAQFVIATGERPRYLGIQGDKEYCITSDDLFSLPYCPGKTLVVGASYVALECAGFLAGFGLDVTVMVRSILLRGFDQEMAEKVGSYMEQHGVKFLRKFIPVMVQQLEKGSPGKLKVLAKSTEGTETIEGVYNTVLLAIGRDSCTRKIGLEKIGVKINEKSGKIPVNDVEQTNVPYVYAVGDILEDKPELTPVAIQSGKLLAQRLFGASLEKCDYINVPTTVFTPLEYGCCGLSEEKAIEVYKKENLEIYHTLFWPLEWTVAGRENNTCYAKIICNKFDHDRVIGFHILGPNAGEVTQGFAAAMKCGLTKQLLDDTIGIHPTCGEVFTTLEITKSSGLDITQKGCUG
Summary of the method: as §1

## Nc1ncnc2c1ncn2[C@@H]1O[C@H](COP(=O)(O)OP(=O)(O)NP(=O)(O)O)[C@@H](O)[C@H]1O [adenylyl imidodiphosphate]
[1]; concentration: 1mM
  NP40-soluble protein abundance: 1.02 ± 0.043
[1]; concentration: 2mM
  NP40-soluble protein abundance: 1.08 ± 0.051
[1]; concentration: 4mM
  NP40-soluble protein abundance: 0.995 ± 0.028
[1]; concentration: 6mM
  NP40-soluble protein abundance: 0.991 ± 0.071
[1]; concentration: 8mM
  NP40-soluble protein abundance: 0.957 ± 0.044
[1]; concentration: 10mM
  NP40-soluble protein abundance: 0.972 ± 0.031
[2]; concentration: 1mM
  NP40-soluble protein abundance: 0.9873 ± 0.0084
[2]; concentration: 2mM
  NP40-soluble protein abundance: 0.942 ± 0.032
[2]; concentration: 4mM
  NP40-soluble protein abundance: 0.956 ± 0.016
[2]; concentration: 6mM
  NP40-soluble protein abundance: 0.956 ± 0.019
[2]; concentration: 8mM
  NP40-soluble protein abundance: 0.975 ± 0.0099
[2]; concentration: 10mM
  NP40-soluble protein abundance: 0.935 ± 0.017
[3]; concentration: 1mM
  NP40-soluble protein abundance: 0.963 ± 0.038
[3]; concentration: 2mM
  NP40-soluble protein abundance: 0.948 ± 0.022
[3]; concentration: 4mM
  NP40-soluble protein abundance: 0.983 ± 0.017
[3]; concentration: 6mM
  NP40-soluble protein abundance: 0.978 ± 0.021
[3]; concentration: 8mM
  NP40-soluble protein abundance: 0.99 ± 0.037
[3]; concentration: 10mM
  NP40-soluble protein abundance: 0.98 ± 0.035
[4]; concentration: 1mM
  NP40-soluble protein abundance: 0.972 ± 0.025
[4]; concentration: 2mM
  NP40-soluble protein abundance: 0.918 ± 0.044
[4]; concentration: 4mM
  NP40-soluble protein abundance: 0.945 ± 0.04
[4]; concentration: 6mM
  NP40-soluble protein abundance: 0.924 ± 0.017
[4]; concentration: 8mM
  NP40-soluble protein abundance: 0.9446 ± 0.0092
[4]; concentration: 10mM
  NP40-soluble protein abundance: 0.8992 ± 0.008
[5]
  NP40-soluble protein abundance: 1 ± 0.02
